These are yes or no findings as the source states them, for the method shown. Some entries that bind do so weakly or less than the wild type.

Chains of the proteins cited; added tags and fusions are not shown. Lines headed by an entry give the natural chain unless they say otherwise; changes in a name come on top.
UniProt P11983: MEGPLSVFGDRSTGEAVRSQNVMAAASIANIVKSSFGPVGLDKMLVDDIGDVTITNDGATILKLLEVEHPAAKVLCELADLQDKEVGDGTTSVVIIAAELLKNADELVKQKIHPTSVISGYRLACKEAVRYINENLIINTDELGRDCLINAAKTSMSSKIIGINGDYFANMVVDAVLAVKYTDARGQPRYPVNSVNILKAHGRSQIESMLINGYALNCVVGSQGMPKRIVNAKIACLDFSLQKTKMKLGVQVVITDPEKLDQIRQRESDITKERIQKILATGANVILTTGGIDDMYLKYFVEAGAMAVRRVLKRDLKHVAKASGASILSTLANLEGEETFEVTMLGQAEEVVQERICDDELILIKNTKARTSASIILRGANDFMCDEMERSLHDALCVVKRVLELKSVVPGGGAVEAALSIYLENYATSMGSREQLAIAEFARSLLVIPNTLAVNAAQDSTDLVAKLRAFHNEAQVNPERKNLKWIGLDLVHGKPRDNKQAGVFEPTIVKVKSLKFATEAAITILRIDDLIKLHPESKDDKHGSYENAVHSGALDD

The target in the first assay is CCT (chaperonin containing TCP-1) complex from mouse testis (mouse) (UniProt P11983). In words: biotinylated peptide with CCT in solution, native PAGE blot.
Consider SGSGGAPRHQGVMVGMGQK (biotin group at the N-terminus; amide C-terminus) [peptide 8.2, biotin-SGSG-…], for which the binding entry is “binds”.
Turning to SGSGGRARHQGVMVGMGQK (biotin group at the N-terminus; amide C-terminus) [peptide 8.3, biotin-SGSG-…], the binding entry is on record as “binds”.

A further assay has the same target. In words: strength of CCT binding to immobilised peptides, ELISA with MAb 91a, A410.
For the molecule IQAVLSLYASGRTTG [reference peptide 10 (FIG. 10)], the binding entry is “binds”.
The same measure, in the same setting: the result for RGYSFTTTAEREIVR [reference peptide 12 (FIG. 10)] reads “binds”; that for LASLSTFQQMWISKQ [reference peptide 8 (FIG. 10)], “binds”; that for APRAVFPSIVGRPRH [reference peptide 1 (FIG. 10)], “binds”.
On the same count and under the same terms, next, KILTERGYSFTTTAE [reference peptide 11 (FIG. 10)]: “binds”; LPHAILRLDLAGRDL [reference peptide 7 (FIG. 10)]: “binds”.
GGTTMYPGIADRMQK [reference peptide 4 (FIG. 10)]: the binding result is “binds”.
On the same count and under the same terms, next, FPSIVGRPRHQGVMV [reference peptide 2 (FIG. 10)]: “binds”; DEAQSKRGILTLKYP [reference peptide 9 (FIG. 10)]: “binds”.
In the case of PRHQGVMVGMGQKDS [reference peptide 5 (FIG. 10)], the binding result is listed as “binds”.
Regarding GRPRHQGVMVGMGQK [reference peptide 3 (FIG. 10)], the binding entry is recorded as “binds”.
Same read-out and setting: the result for ASSSSLEKSYELPDG [reference peptide 13 (FIG. 10)] reads “binds”; that for TFNTPAMYVAIQAVL [reference peptide 6 (FIG. 10)], “binds”.
For the molecule APSTMKIKIIAPPER [reference peptide 14 (FIG. 10)], the binding entry is reported as “binds”.
With APPERKYSVWIGGSI [reference peptide 15 (FIG. 10)], the binding result is recorded as “binds”.

A further assay shares this target. In words: immobilised 15-mer peptide pins, mouse testis CCT, ELISA with MAb 91a, A410.
In the case of GGTTMYPGIADRMQK [mouse beta actin substrate peptide 61 (residues 301-315), immobilised], the binding result is recorded as “binds”.
On the same count and under the same terms, next, APRAVFPSIVGRPRH [mouse beta actin substrate peptide 6 (residues 26-40), immobilised]: “binds”; FPSIVGRPRHQGVMV [mouse beta actin substrate peptide 7 (residues 31-45), immobilised]: “binds”.
Same read-out and setting: next, GRPRHQGVMVGMGQK [mouse beta actin substrate peptide 8 (residues 36-50), immobilised]: “binds”.

For a further assay the target is unchanged. Briefly: biotinylated peptide with CCT in solution, native PAGE, blot probed with streptavidin-HRP.
For the molecule SGSGGRPRHQGVMVGMGQK (biotin group at the N-terminus; amide C-terminus) [biotinylated actin peptide number 8, biotin-SGSG-… (wild-type β-actin residues 36-50)], the binding entry is “binds”.
On to SGSGGAPRHQGVMVGMGQK (biotin group at the N-terminus; amide C-terminus) [peptide 8.2, biotin-SGSG-…], for which the binding entry is recorded as “binds”.
The same measure, in the same setting: the result for SGSGGRARHQGVMVGMGQK (biotin group at the N-terminus; amide C-terminus) [peptide 8.3, biotin-SGSG-…] reads “binds”.

A further assay has the same target. In words: peptide with CCT in buffered solution, non-denaturing gel, blot probed with streptavidin-HRP.
On to SGSGGRPRHQGVMVGMGQK (biotin group at the N-terminus; amide C-terminus) [biotinylated actin peptide number 8, biotin-SGSG-… (wild-type β-actin residues 36-50)], for which the binding entry was “binds”.
